Experimental data published in patent publication US20090087425A1, “Combination of nitroderivatized steroid and bronchodilator for treating respiratory disease” (Topigen Pharmaceuticals Inc., priority 2007, published 2009).

System: bronchoconstriction induced by histamine
Assay: Histamine-induced bronchoconstriction in conscious guinea-pigs, whole body plethysmography (sGaw)
Type: in vivo, guinea-pig

## COc1ccc(CC(C)NCC(O)c2ccc(O)c(NC=O)c2)cc1 (stereo not shown) [Formoterol, formoterol]
FIG. 4A, formoterol 0.3 μg/ml, 90 minutes before histamine
  Post-treatment (% sGaw): −70.0 % sGaw
FIG. 4A, formoterol 1 μg/ml, 90 minutes before histamine
  Post-treatment (% sGaw): −75.1 % sGaw
FIG. 4A, formoterol 3 μg/ml, 90 minutes before histamine
  Post-treatment (% sGaw): −29.2 % sGaw
FIG. 4B, formoterol 1 μg/ml
  Post-treatment (% sGaw): −75.1 % sGaw
